This note sets out measurements from publication PMC5095914.

Chains of the proteins cited; added tags and fusions are not shown.
UniProt P0AG99: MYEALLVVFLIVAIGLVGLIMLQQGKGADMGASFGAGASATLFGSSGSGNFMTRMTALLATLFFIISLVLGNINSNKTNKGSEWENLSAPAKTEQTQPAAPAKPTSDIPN
UniProt P0AG96: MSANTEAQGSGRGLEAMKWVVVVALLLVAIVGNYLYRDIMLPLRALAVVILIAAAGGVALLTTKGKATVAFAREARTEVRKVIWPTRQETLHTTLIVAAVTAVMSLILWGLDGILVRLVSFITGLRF

The target of experiment [1] is SecG (E. coli (endogenous in strain C43)) (UniProt P0AG99). As to the kind of experiment: co-IP; SMALPs (2.5% SMA, no detergent) from wild-type E. coli C43 membranes; monoclonal SecG antibody 3 h at 21°C, protein G overnight at 4°C, TSG buffer (20 mM Tris-HCl pH 8.0, 130 mM NaCl, 10% glycerol); western blotting for the HTL components; control without antibody. A general note: A western blot detects proteins with antibodies after separation by electrophoresis.

The target of experiment [2] is mechano-sensitive channel protein (MscL) (UniProt P0A742). As to the kind of experiment: native gel or EMSA; BN-PAGE (4-16% Bis-Tris NativePAGE) of 35S-labelled protein translated in vitro and inserted into proteoliposomes (SecYEG, YidC or HTL), after flotation and 5 M urea wash, solubilised in DDM; phosphor imaging. For orientation: Mobility shift assays separate free from complexed probe on a gel.

Results are given in words; binding and its absence hold for the method and conditions named. For some of these results: In cells and extracts the contact can be indirect. Some results given as binding are weak or reduced against the parent protein; the word gives no strength.

Consider SecE (from UniProt P0AG96 1-127), for which, in experiment [1], the binding entry is listed as “binds”.

B1: SecD (protein, UniProt P0AG90 1-615)
chain: MLNRYPLWKYVMLIVVIVIGLLYALPNLFGEDPAVQITGARGVAASEQTLIQVQKTLQEEKITAKSVALEEGAILARFDSTDTQLRAREALMGVMGDKYVVALNLAPATPRWLAAIHAEPMKLGLDLRGGVHFLMEVDMDTALGKLQEQNIDSLRSDLREKGIPYTTVRKENNYGLSITFRDAKARDEAIAYLSKRHPDLVISSQGSNQLRAVMSDARLSEAREYAVQQNINILRNRVNQLGVAEPVVQRQGADRIVVELPGIQDTARAKEILGATATLEFRLVNTNVDQAAAASGRVPGDSEVKQTREGQPVVLYKRVILTGDHITDSTSSQDEYNQPQVNISLDSAGGNIMSNFTKDNIGKPMATLFVEYKDSGKKDANGRAVLVKQEEVINIANIQSRLGNSFRITGINNPNEARQLSLLLRAGALIAPIQIVEERTIGPTLGMQNIEQGLEACLAGLLVSILFMIIFYKKFGLIATSALIANLILIVGIMSLLPGATLSMPGIAGIVLTLAVAVDANVLINERIKEELSNGRTVQQAIDEGYRGAFSSIFDANITTLIKVIILYAVGTGAIKGFAITTGIGVATSMFTAIVGTRAIVNLLYGGKRVKKLSI
On to B1, for which the binding result in experiment [1] is “binds”.

B2: SecF (protein, UniProt P0AG93 1-323)
chain: MAQEYTVEQLNHGRKVYDFMRWDYWAFGISGLLLIAAIVIMGVRGFNWGLDFTGGTVIEITLEKPAEIDVMRDALQKAGFEEPMLQNFGSSHDIMVRMPPAEGETGGQVLGSQVLKVINESTNQNAAVKRIEFVGPSVGADLAQTGAMALMAALLSILVYVGFRFEWRLAAGVVIALAHDVIITLGILSLFHIEIDLTIVASLMSVIGYSLNDSIVVSDRIRENFRKIRRGTPYEIFNVSLTQTLHRTLITSGTTLMVILMLYLFGGPVLEGFSLTMLIGVSIGTASSIYVASALALKLGMKREHMLQQKVEKEGADQPSILP
Take B2: the binding result in experiment [1] is given as “binds”.

B3: mechano-sensitive channel protein (MscL) (protein, UniProt P0A742 1-136)
chain: MSIIKEFREFAMRGNVVDLAVGVIIGAAFGKIVSSLVADIIMPPLGLLIGGIDFKQFAVTLRDAQGDIPAVVMHYGVFIQNVFDFLIVAFAIFMAIKLINKLNRKKEEPAAAPAPTKEEVLLTEIRDLLKEQNNRS
In the case of B3, the binding entry in experiment [2] was “binds”.
